Data source: PubChem BioAssay AID652243 (Drosophila RNAi Screening Center, 2013)

- Test: 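Fly genes required for human androgen receptor driven transcription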 (primary screen)
- Cells: Drosophila S2R+ cells
- Reagents: long dsRNA against Drosophila genes
- Duration: 72 h (48 h, then 24 h hormone)
- Conditions: synthetic androgen R1881 at 10 nM for 24 h
- Measured: 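Firefly light from an androgen-responsive reporter and Renilla control light per well, raw and unnormalised, for each of two replicates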
- Reading the numbers: firefly reporter light: higher = more light from androgen-responsive reporter; Renilla control light: higher = more constitutive control signal (cell number, transfection)
- Active means: 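Hit when the log firefly-to-Renilla ratio dropped or increased by a fixed fold versus the mean of GFP or LacZ controls across duplicate plates; lowering cut given as 1.5 and as 3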
- Calls: active = hit: reporter lowered or raised; inactive = no hit
In all, the deposit lists about 24,000 reagents; this is an unselected part of those with a known target gene and a result. Over the whole deposit, 246 (1%) got an active call. 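Plates not normalised; calls are printed but the firefly/Renilla ratio behind them is not deposited; fold cut for lowering reported inconsistently.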 Raw values are not corrected between plates. Names joined by + are all predicted targets of the reagent. Not given: the amount of reagent.

| gene knocked down | PubChem SID | firefly reporter light, replicate 1 | firefly reporter light, replicate 2 | Renilla control light, replicate 1 | Renilla control light, replicate 2 | call |
| --- | --- | --- | --- | --- | --- | --- |
| CG5359 | SID104195572 | 1.80e5 | 1.78e5 | 3.39e6 | 3.08e6 | active |
| asRNA:CR43426 + CG32462 | SID104208002 | 6.28e5 | 6.77e5 | 1.21e6 | 1.21e6 | inactive |
| CG4053 | SID104195330 | 5.03e5 | 7.51e5 | 6.82e5 | 1.71e6 | inactive |
| CG4053 | SID104207908 | 2.64e5 | 4.00e5 | 9.31e5 | 9.31e5 | inactive |
| CG2065 | SID104186605 | 3.60e5 | 3.90e5 | 2.75e6 | 2.34e6 | inactive |
| CG2065 | SID104201110 | 8.07e5 | 8.01e5 | 2.32e6 | 2.13e6 | inactive |
| CG2065 | SID104207708 | 5.17e5 | 4.90e5 | 1.21e6 | 1.26e6 | inactive |
| RhoU | SID104197595 | 2.44e5 | 2.58e5 | 2.70e6 | 3.23e6 | inactive |
| RhoU | SID104197596 | 5.70e5 | 7.03e5 | 1.60e6 | 1.28e6 | inactive |
| RhoU | SID104201706 | 1.04e6 | 6.08e5 | 3.27e6 | 1.57e6 | inactive |
| RhoU | SID104201874 | 5.59e5 | 9.11e5 | 8.58e5 | 1.75e6 | inactive |
| RhoU | SID104203743 | 6.61e5 | 1.00e6 | 7.24e5 | 1.22e6 | inactive |
| RhoU | SID104207463 | 2.78e5 | 6.42e5 | 8.91e5 | 1.13e6 | inactive |
| Cyp6d2 | SID104184398 | 3.32e5 | 3.07e5 | 2.30e6 | 2.71e6 | inactive |
| Cyp6d2 | SID104204191 | 7.65e5 | 3.80e5 | 5.69e5 | 4.89e5 | inactive |
| Ir76b | SID104190623 | 2.66e5 | 2.56e5 | 2.59e6 | 3.37e6 | inactive |
| CG30369 | SID104201592 | 5.10e5 | 5.95e5 | 2.21e6 | 2.02e6 | inactive |
| CG30369 | SID104208387 | 8.15e5 | 7.67e5 | 1.29e6 | 1.70e6 | inactive |
| RpL17 | SID104198085 | 47438 | 65967 | 5.88e5 | 4.34e5 | inactive |
| RpL17 | SID104208515 | 2.46e5 | 3.61e5 | 9.16e5 | 8.50e5 | inactive |
| sli | SID104187476 | 58447 | 41424 | 6.78e5 | 6.78e5 | inactive |
| sli | SID104202293 | 4.81e5 | 1.25e6 | 1.24e6 | 2.79e6 | inactive |
| sli | SID104208122 | 5.11e5 | 5.67e5 | 1.09e6 | 1.09e6 | inactive |
| p24-1 | SID104199619 | 2.86e5 | 1.91e5 | 2.52e6 | 2.30e6 | inactive |
| p24-1 | SID104205262 | 2.98e5 | 2.64e5 | 7.73e5 | 7.51e5 | inactive |
| aust | SID104182350 | 1.37e5 | 1.64e5 | 1.43e6 | 1.35e6 | inactive |
| aust | SID104204563 | 4.83e5 | 3.41e5 | 8.31e5 | 6.48e5 | inactive |
| pelo | SID104183380 | 8.96e5 | 1.02e6 | 1.51e6 | 1.29e6 | inactive |
| lin-52 | SID104197898 | 2.95e5 | 3.42e5 | 4.25e6 | 4.35e6 | inactive |
| CG14712 | SID104194727 | 25679 | 33234 | 4.00e5 | 2.52e5 | inactive |
| CG13924 | SID104188185 | 47419 | 61916 | 8.30e5 | 8.52e5 | inactive |
| Mst84Db | SID104192334 | 1.35e5 | 1.21e5 | 2.07e6 | 1.39e6 | inactive |
| Mst84Db | SID104192390 | 91515 | 1.17e5 | 2.40e6 | 2.31e6 | inactive |
| Mst84Db | SID104207780 | 6.40e5 | 5.62e5 | 1.34e6 | 1.47e6 | inactive |
| kar | SID104194288 | 28733 | 71826 | 3.45e5 | 6.92e5 | inactive |
| Pvr | SID104182872 | 5.42e5 | 6.24e5 | 1.43e6 | 1.28e6 | inactive |
| Pvr | SID104214416 | 8.89e5 | 7.29e5 | 1.15e6 | 1.08e6 | inactive |
| Pvr | SID104214417 | – | – | – | – | inactive |

Laid out differently: results already given
gene knocked down,PubChem SID,"firefly reporter light, replicate 1","firefly reporter light, replicate 2","Renilla control light, replicate 1","Renilla control light, replicate 2",call
RpL17,SID104208515,2.46e5,3.61e5,9.16e5,8.50e5,inactive
sli,SID104187476,58447,41424,6.78e5,6.78e5,inactive
sli,SID104202293,4.81e5,1.25e6,1.24e6,2.79e6,inactive
sli,SID104208122,5.11e5,5.67e5,1.09e6,1.09e6,inactive
p24-1,SID104199619,2.86e5,1.91e5,2.52e6,2.30e6,inactive
p24-1,SID104205262,2.98e5,2.64e5,7.73e5,7.51e5,inactive
aust,SID104182350,1.37e5,1.64e5,1.43e6,1.35e6,inactive
aust,SID104204563,4.83e5,3.41e5,8.31e5,6.48e5,inactive
pelo,SID104183380,8.96e5,1.02e6,1.51e6,1.29e6,inactive

The results go on.
| gene knocked down | PubChem SID | firefly reporter light, replicate 1 | firefly reporter light, replicate 2 | Renilla control light, replicate 1 | Renilla control light, replicate 2 | call |
| --- | --- | --- | --- | --- | --- | --- |
| Rad23 | SID104196959 | 1.10e5 | 74741 | 5.63e5 | 6.89e5 | inactive |
| CG7907 | SID104196131 | 2.49e5 | 2.83e5 | 3.32e6 | 3.00e6 | inactive |
| CG7907 | SID104204585 | 2.96e5 | 2.41e5 | 7.29e5 | 5.66e5 | inactive |
| CG1941 | SID104186594 | 5.15e5 | 5.29e5 | 1.34e6 | 1.86e6 | inactive |
| CG17104 | SID104182365 | 1.02e6 | 1.65e6 | 2.19e6 | 2.88e6 | inactive |
| CG17104 | SID104208236 | 2.21e5 | 2.55e5 | 1.06e6 | 1.12e6 | inactive |
| aln | SID104188032 | 50461 | 56567 | 6.62e5 | 6.89e5 | inactive |
| p130CAS | SID104187654 | 1.50e5 | 1.74e5 | 2.29e5 | 2.81e5 | inactive |
| p130CAS | SID104188049 | 1.59e6 | 1.61e6 | 2.47e6 | 1.95e6 | inactive |
| p130CAS | SID104205160 | 2.63e5 | 2.84e5 | 6.45e5 | 6.76e5 | inactive |
| CR9337 | SID104183004 | 1.28e6 | 6.23e5 | 2.91e6 | 2.33e6 | inactive |
| CR9337 | SID104208342 | 4.53e5 | 4.86e5 | 2.03e6 | 1.92e6 | inactive |
| wit | SID104188533 | 9.74e5 | 9.22e5 | 1.62e6 | 1.35e6 | inactive |
| wit | SID104204635 | 2.77e5 | 4.28e5 | 5.60e5 | 8.13e5 | active |
| wit | SID104214610 | – | – | – | – | inactive |
| Mp20 | SID104187266 | 4.41e5 | 3.22e5 | 1.99e6 | 1.79e6 | inactive |
| Mp20 | SID104208337 | 3.73e5 | 5.64e5 | 1.46e6 | 1.59e6 | inactive |
| Shrm | SID104186230 | 55026 | 90624 | 1.06e6 | 1.06e6 | inactive |
| Shrm | SID104187013 | 1.48e6 | 1.69e6 | 2.93e6 | 2.61e6 | inactive |
| Shrm | SID104202424 | 6.31e5 | 6.80e5 | 1.67e6 | 1.54e6 | inactive |
| Shrm | SID104203618 | 9.18e5 | 9.67e5 | 8.97e5 | 9.06e5 | inactive |
| Shrm | SID104206042 | 2.88e5 | 2.94e5 | 4.32e5 | 6.77e5 | inactive |
